Data as given in PubChem BioAssay AID602196 (INSERM, 2012).
This is one part, drawn at random, of about 23,000 deposited reagents. Over the whole deposit, 455 (2%) are marked active. 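Active includes both protection and sensitisation; some change values fall well beyond the stated -50 to +50 range.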 Not all columns of the deposit are shown. Not given: the amount of reagent.

- Assay: 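Modifiers of cisplatin sensitivity in A549 cells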
- Cell system: human A549 lung cancer cells
- Reagent: siRNA pair against human genes
- Time to read-out: 48 h transfection before cisplatin; time from cisplatin to read-out not stated
- Conditions: cisplatin at a dose killing half of control-siRNA cells; exact dose and duration not given
- Measurement: 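Shift in cisplatin death relative to control siRNA, from -50 (all cells die) to +50 (no cells die); siRNAs harmful on their own scored 0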
- Reading the numbers: two-siRNA summed score (-2 to +2): higher = both siRNAs protect from cisplatin killing; -2 means both sensitise; mean protection from cisplatin (shift in death) and protection from cisplatin (shift in death), siRNA C: higher = protection from cisplatin killing
- Call rule: 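siRNAs harmful alone (LDH or WST-1) get 0; others get +1 for less and -1 for more cisplatin killing; genes are active when the two siRNAs give the same sign, summing to ±2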
- Meaning of the calls: active = both siRNAs shift cisplatin killing the same way; inactive = no consistent shift, or siRNA harmful alone

Target gene | two-siRNA summed score (-2 to +2) | mean protection from cisplatin (shift in death) (%) | protection from cisplatin (shift in death), siRNA C (%) | outcome
LOC441743 | 0 | 17.1 | 7.5 | inactive
HOXD11 (homeobox D11) | -1 | -4.2 | 2.9 | inactive
UBE3C (ubiquitin protein ligase E3C) | -2 | -23.3 | -25.3 | active
COL8A2 (collagen type VIII alpha 2 chain) | 0 | 5.1 | -5 | inactive
TNFRSF1A (TNF receptor superfamily member 1A) | 1 | 19.7 | 11.3 | inactive
ROBO4 (roundabout guidance receptor 4) | 0 | -6.5 | -4.7 | inactive
OR2V2 (olfactory receptor family 2 subfamily V member 2) | 0 | -0.7 | 8.6 | inactive
S100A4 (S100 calcium binding protein A4) | 0 | 4.5 | 11.1 | inactive
LOC401233 | 0 | -9.2 | -6.2 | inactive
CYB5R1 (cytochrome b5 reductase 1) | -1 | -20.4 | -28.2 | inactive
NTPCR (nucleoside-triphosphatase, cancer-related) | 0 | 6.5 | 9.9 | inactive
EPG5 (ectopic P-granules 5 autophagy tethering factor) | 0 | -14 | -15.6 | inactive
GLRA2 (glycine receptor alpha 2) | -1 | -9.6 | 2.1 | inactive
LOC400669 | 1 | 5.4 | -12.2 | inactive
SMG8 (SMG8 nonsense mediated mRNA decay factor) | 1 | 17.8 | 5.3 | inactive
UBE4B (ubiquitination factor E4B) | 1 | 17.9 | 23.7 | inactive
EED (embryonic ectoderm development) | 0 | -0.4 | -7.7 | inactive
MIR1915HG (MIR1915 host gene) | 0 | 13 | 16 | inactive
GAPT (GRB2 binding adaptor protein, transmembrane) | 1 | 8.4 | 12.6 | inactive
DNAJC8 (DnaJ heat shock protein family (Hsp40) member C8) | 0 | -0.6 | -3.8 | inactive
SSX7 (SSX family member 7) | 0 | 5.2 | 7.4 | inactive
ACVR2B (activin A receptor type 2B) | 0 | -2.1 | -0.7 | inactive
LOC387894 | 0 | -3 | -9.3 | inactive
DBNDD1 (dysbindin domain containing 1) | 0 | 1.7 | 3.7 | inactive
SLC27A1 | 1 | 25.2 | 46.5 | inactive
ANKZF1 (ankyrin repeat and zinc finger peptidyl tRNA hydrolase 1) | 0 | -4.3 | -3 | inactive
SDSL (serine dehydratase like) | 0 | 3.5 | 10.2 | inactive
ZNF75D (zinc finger protein 75D) | 1 | 18.5 | 34 | inactive
LOC442497 | 0 | 3.3 | 10.4 | inactive
RNF145 (ring finger protein 145) | 1 | -4.1 | 12.2 | inactive
POLK (DNA polymerase kappa) | 0 | -19 | -3.7 | inactive
PKM (pyruvate kinase M1/2) | 0 | 1.8 | -3.6 | inactive
KRTAP9-3 (keratin associated protein 9-3) | 0 | 8.3 | 5.7 | inactive
PDAP1 (PDGFA associated protein 1) | -1 | -3.5 | -10 | inactive
MTRR | 1 | 5.5 | 0.2 | inactive
LOC391340 | 1 | 10.3 | 17.6 | inactive
ZBED2 (zinc finger BED-type containing 2) | 0 | 7.3 | 9 | inactive
GGT7 (gamma-glutamyltransferase 7) | 2 | 22.4 | 31.1 | active
LOC440839 | 0 | 8.1 | 10.3 | inactive
LTAP1 (lipid transport auxiliary protein 1) | 1 | 10 | 3.3 | inactive
RC3H2 (ring finger and CCCH-type domains 2) | -1 | -18.6 | -29.4 | inactive
LOC392512 | 0 | 8.2 | 15.2 | inactive
LOC440460 | 1 | 14.2 | 8.1 | inactive
FCGRT (Fc gamma receptor and transporter) | 0 | 1.9 | 1.2 | inactive
TAB1 (TGF-beta activated kinase 1 (MAP3K7) binding protein 1) | 2 | 21.5 | 20.4 | active
LOC285296 | 1 | 15.2 | 13.5 | inactive
FAM222A (family with sequence similarity 222 member A) | 0 | 1.1 | 5.5 | inactive
HIGD1A (HIG1 hypoxia inducible domain family member 1A) | 0 | 2.9 | -6.3 | inactive
EIF5A (eukaryotic translation initiation factor 5A) | 1 | 8.9 | 7.1 | inactive
FHIP1B (FHF complex subunit HOOK interacting protein 1B) | 1 | 21 | 13.3 | inactive
ADTRP (androgen dependent TFPI regulating protein) | 0 | 1.9 | 1.5 | inactive
CH25H (cholesterol 25-hydroxylase) | 0 | -1 | 4.7 | inactive
H2BC15 (H2B clustered histone 15) | 0 | -1.2 | -8.4 | inactive
PKP4 (plakophilin 4) | 0 | 5.2 | 16.9 | inactive
IRF2 (interferon regulatory factor 2) | 1 | 30.1 | 26.2 | inactive
LRRC28 (leucine rich repeat containing 28) | 0 | 1.5 | 6.1 | inactive
GRTP1 (growth hormone regulated TBC protein 1) | 0 | 0.5 | -2 | inactive
